Laboratory results as given in PMC4906249.
These are yes or no findings as the source states them, for the method shown. For part of these data: In cells and extracts the contact can be indirect. Some entries that bind do so weakly or less than the wild type. For part of these data: Tags and fused reporters may be left off the sequences shown.

The chains behind the UniProt entries cited, without tags or fusion partners.
UniProt O95251: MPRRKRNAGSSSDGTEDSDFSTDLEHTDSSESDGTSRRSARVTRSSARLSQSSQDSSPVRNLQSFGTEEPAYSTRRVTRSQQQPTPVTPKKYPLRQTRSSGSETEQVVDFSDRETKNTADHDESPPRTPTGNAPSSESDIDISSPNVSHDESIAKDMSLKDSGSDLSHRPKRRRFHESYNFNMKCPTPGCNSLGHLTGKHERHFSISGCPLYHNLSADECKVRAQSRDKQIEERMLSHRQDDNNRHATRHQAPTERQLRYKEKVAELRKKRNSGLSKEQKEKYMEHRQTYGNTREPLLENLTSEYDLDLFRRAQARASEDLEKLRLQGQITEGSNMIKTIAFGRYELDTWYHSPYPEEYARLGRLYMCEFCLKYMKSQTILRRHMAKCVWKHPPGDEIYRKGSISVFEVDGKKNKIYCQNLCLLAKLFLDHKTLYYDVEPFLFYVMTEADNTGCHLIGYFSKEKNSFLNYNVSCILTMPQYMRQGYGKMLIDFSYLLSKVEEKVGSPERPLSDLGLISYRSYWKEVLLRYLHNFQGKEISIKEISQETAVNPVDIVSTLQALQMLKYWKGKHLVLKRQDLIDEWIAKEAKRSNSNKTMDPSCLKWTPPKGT
UniProt O95696: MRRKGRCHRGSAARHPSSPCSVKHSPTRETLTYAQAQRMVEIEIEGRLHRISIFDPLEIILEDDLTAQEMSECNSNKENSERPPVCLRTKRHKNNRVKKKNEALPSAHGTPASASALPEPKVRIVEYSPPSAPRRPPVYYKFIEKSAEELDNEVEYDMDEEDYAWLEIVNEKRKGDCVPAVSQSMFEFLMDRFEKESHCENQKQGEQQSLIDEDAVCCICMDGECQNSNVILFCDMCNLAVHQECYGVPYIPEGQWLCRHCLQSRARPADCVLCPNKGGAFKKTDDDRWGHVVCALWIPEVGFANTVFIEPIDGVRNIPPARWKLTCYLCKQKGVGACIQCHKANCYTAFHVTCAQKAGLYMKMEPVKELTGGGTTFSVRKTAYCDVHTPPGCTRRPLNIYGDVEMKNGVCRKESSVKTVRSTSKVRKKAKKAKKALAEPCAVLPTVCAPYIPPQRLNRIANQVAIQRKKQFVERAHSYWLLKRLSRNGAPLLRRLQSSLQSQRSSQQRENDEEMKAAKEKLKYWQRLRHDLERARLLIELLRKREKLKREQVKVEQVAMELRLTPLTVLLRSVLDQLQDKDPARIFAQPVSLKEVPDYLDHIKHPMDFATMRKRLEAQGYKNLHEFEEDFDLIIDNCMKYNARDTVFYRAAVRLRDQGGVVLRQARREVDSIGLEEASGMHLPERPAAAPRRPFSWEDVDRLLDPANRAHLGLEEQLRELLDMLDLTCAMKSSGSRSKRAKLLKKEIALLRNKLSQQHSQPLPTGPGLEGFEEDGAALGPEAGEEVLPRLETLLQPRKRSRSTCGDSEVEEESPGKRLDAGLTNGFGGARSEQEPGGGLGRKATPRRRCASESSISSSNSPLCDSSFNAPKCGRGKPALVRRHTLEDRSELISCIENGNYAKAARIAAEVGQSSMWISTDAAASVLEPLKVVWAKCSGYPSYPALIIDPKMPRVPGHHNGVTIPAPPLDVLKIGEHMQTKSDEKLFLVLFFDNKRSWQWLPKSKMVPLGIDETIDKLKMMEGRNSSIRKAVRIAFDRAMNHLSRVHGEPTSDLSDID
UniProt Q8NCD3: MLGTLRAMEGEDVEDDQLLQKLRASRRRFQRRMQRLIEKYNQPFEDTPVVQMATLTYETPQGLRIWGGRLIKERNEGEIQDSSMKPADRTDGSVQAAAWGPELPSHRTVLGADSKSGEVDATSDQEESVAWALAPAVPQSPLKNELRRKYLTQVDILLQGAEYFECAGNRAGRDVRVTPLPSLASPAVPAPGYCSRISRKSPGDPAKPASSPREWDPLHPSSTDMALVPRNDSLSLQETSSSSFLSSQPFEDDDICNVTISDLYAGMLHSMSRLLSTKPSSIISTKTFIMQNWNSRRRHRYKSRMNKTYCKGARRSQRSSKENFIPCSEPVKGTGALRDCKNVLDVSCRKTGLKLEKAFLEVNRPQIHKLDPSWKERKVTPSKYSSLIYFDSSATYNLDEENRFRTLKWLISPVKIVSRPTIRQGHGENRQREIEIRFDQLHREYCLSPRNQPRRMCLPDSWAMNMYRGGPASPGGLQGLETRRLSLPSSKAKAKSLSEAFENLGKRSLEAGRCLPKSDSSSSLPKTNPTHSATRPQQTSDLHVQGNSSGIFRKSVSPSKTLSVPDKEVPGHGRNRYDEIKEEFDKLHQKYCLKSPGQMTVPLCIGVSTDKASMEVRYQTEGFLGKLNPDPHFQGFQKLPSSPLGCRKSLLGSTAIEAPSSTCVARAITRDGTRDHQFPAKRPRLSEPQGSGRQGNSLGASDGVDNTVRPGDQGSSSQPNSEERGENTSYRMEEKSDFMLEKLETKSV

Experiments:
[1] = molecular target: M18BP1 (immunoprecipitated with anti-M18BP1 antibody) (human) (UniProt Q6P0N0); test: co-IP; cytosolic extract of transfected HeLa or 293T cells, immunoprecipitation with anti-KAT7 and anti-M18BP1 antibodies on Protein G Dynabeads; ectopically expressed tagged proteins detected by immunoblot
[2] = molecular target: KAT7 (immunoprecipitated with anti-KAT7 antibody) (human) (UniProt O95251); test: as above
[3] = molecular target: T1, tetR-EYFP-fused M18BP1 carboxyl-terminal domain (851–1,132) (human) (UniProt Q6P0N0); test: fluorescence microscopy-based interaction-trap assay; tetR-EYFP fusion tethered to the ectopic alphoid^tetO DNA integration site in HeLa-Int-03 cells; recruitment of Halo-tag-fused prey seen with Halo-TMR ligand
T1 sequence: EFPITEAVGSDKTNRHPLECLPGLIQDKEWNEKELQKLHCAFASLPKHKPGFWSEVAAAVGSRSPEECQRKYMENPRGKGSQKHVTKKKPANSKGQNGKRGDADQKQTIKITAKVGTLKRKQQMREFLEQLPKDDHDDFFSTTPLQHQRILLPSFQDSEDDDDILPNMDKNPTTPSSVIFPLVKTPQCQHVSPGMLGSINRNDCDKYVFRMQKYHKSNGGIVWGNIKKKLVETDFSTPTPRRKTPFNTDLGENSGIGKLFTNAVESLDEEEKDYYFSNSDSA

[4] = molecular target: tetR-EYFP-hMis18β (human) (UniProt O43482); test: as above
[5] = molecular target: tetR-EYFP-fused M18BP1 amino-terminal domain (1–375) (human) (UniProt Q6P0N0); test: as above

binding [1] | binding [2] | Substance | also measured
binds | – | BRPF2 (ectopically expressed tagged protein, co-immunoprecipitation) (from UniProt O95696 1-1058) | –
binds | binds | HJURP (ectopically expressed tagged protein, co-immunoprecipitation) (from UniProt Q8NCD3 1-748) | –
– | – | Halo-fused BRPF2 (from UniProt O95696 1-1058) | binding [3]: binds
– | – | Halo-fused ING4 (from UniProt Q9UNL4 1-249) | binding [4]: binds
– | – | Halo-fused ING5 (from UniProt Q8WYH8 1-240) | binding [4]: binds
– | – | Halo-tag fused KAT7 (from UniProt O95251 1-611) (enzyme) | binding [5]: binds; binding [3]: binds
binds | binds | ING4 (ectopically expressed tagged protein, co-immunoprecipitation) (from UniProt Q9UNL4 1-249) | –
binds | binds | ING5 (ectopically expressed tagged protein, co-immunoprecipitation) (from UniProt Q8WYH8 1-240) | –
